Consider 1 molecule from article PMC12120022, “Discovery and chemical optimisation of a potent, Bi-cyclic antimicrobial inhibitor of Escherichia coli PBP3” (Communications Biology, 2025).

Assay [1] relates to Pseudomonas aeruginosa NCTC 13437. The assay is described as follows: MIC. Format: cell-based. The note with it: NCTC13437, caMHB, replicates listed. How it is done: (§1) Minimal inhibition concentration (MIC) assays were performed in accordance with CLSI standards, using cation-adjusted Mueller Hinton broth (caMHB; Sigma Aldrich) unless otherwise specified. Induction of pore expression in hyperporinated strains E. coli GKCW101 and GKCW102 was performed by addition of 0.1% (w/v) L-arabinose to cultures at OD600 ~ 0.3, with caMHB as the culture medium.

The subject of assay [2] is Klebsiella pneumoniae KPNIH1. The assay is described as follows: MIC. The settings on record: caMHB, replicates listed. Format: cell-based. How it is done: as §1

Regarding `C[C@@H](O)[C@H]1C(=O)N2C(C(=O)O)=C(S[C@@H]3CN[C@H](C(=O)N(C)C)C3)[C@H](C)[C@H]12` [Meropenem, reference compound], the minimal inhibitory concentration (MIC) in assay [1] and in assay [2] was more than 2 µg/mL each time.

A word on the MIC: it is the smallest concentration in the dilution series that meets the test's criterion for growth inhibition. Low readings indicate greater potency, high ones weaker potency.
